This passage reports binding results from paper PMC12343871.

The target of assay [1] is TRIM25 truncation: Ring/B-box/CC domain (human). In words: co-IP; 293T cells cotransfected with TRIM25 or its truncations and flag-NLRP12 or His-HK2; IP and Western blot. In general terms: In western blotting, separated proteins are transferred to a membrane and probed.
Assay [2] has as its target TRIM25 truncation: PRY/SPRY domain (human). The description is as above.

No constants are given. Whether binding was seen depends on the method and setting. Binding seen in cells or lysates may run through a third protein. For some of these results: A result given as binding can be weak or reduced; the word gives no strength. Tags and fused reporters may be left off the sequences shown.

B1: flag-NLRP12 (protein, UniProt P59046 1-1061)
chain: MLRTAGRDGLCRLSTYLEELEAVELKKFKLYLGTATELGEGKIPWGSMEKAGPLEMAQLLITHFGPEEAWRLALSTFERINRKDLWERGQREDLVRDTPPGGPSSLGNQSTCLLEVSLVTPRKDPQETYRDYVRRKFRLMEDRNARLGECVNLSHRYTRLLLVKEHSNPMQVQQQLLDTGRGHARTVGHQASPIKIETLFEPDEERPEPPRTVVMQGAAGIGKSMLAHKVMLDWADGKLFQGRFDYLFYINCREMNQSATECSMQDLIFSCWPEPSAPLQELIRVPERLLFIIDGFDELKPSFHDPQGPWCLCWEEKRPTELLLNSLIRKKLLPELSLLITTRPTALEKLHRLLEHPRHVEILGFSEAERKEYFYKYFHNAEQAGQVFNYVRDNEPLFTMCFVPLVCWVVCTCLQQQLEGGGLLRQTSRTTTAVYMLYLLSLMQPKPGAPRLQPPPNQRGLCSLAADGLWNQKILFEEQDLRKHGLDGEDVSAFLNMNIFQKDINCERYYSFIHLSFQEFFAAMYYILDEGEGGAGPDQDVTRLLTEYAFSERSFLALTSRFLFGLLNEETRSHLEKSLCWKVSPHIKMDLLQWIQSKAQSDGSTLQQGSLEFFSCLYEIQEEEFIQQALSHFQVIVVSNIASKMEHMVSSFCLKRCRSAQVLHLYGATYSADGEDRARCSAGAHTLLVQLPERTVLLDAYSEHLAAALCTNPNLIELSLYRNALGSRGVKLLCQGLRHPNCKLQNLRLKRCRISSSACEDLSAALIANKNLTRMDLSGNGVGFPGMMLLCEGLRHPQCRLQMIQLRKCQLESGACQEMASVLGTNPHLVELDLTGNALEDLGLRLLCQGLRHPVCRLRTLWLKICRLTAAACDELASTLSVNQSLRELDLSLNELGDLGVLLLCEGLRHPTCKLQTLRLGICRLGSAACEGLSVVLQANHNLRELDLSFNDLGDWGLWLLAEGLQHPACRLQKLWLDSCGLTAKACENLYFTLGINQTLTDLYLTNNALGDTGVRLLCKRLSHPGCKLRVLWLFGMDLNKMTHSRLAALRVTKPYLDIGC
Take B1: the binding result in assay [1] is recorded as “binds”; in assay [2] it was “no binding”.

B2: His-HK2 (enzyme, UniProt P52789 1-917)
chain: MIASHLLAYFFTELNHDQVQKVDQYLYHMRLSDETLLEISKRFRKEMEKGLGATTHPTAAVKMLPTFVRSTPDGTEHGEFLALDLGGTNFRVLWVKVTDNGLQKVEMENQIYAIPEDIMRGSGTQLFDHIAECLANFMDKLQIKDKKLPLGFTFSFPCHQTKLDESFLVSWTKGFKSSGVEGRDVVALIRKAIQRRGDFDIDIVAVVNDTVGTMMTCGYDDHNCEIGLIVGTGSNACYMEEMRHIDMVEGDEGRMCINMEWGAFGDDGSLNDIRTEFDQEIDMGSLNPGKQLFEKMISGMYMGELVRLILVKMAKEELLFGGKLSPELLNTGRFETKDISDIEGEKDGIRKAREVLMRLGLDPTQEDCVATHRICQIVSTRSASLCAATLAAVLQRIKENKGEERLRSTIGVDGSVYKKHPHFAKRLHKTVRRLVPGCDVRFLRSEDGSGKGAAMVTAVAYRLADQHRARQKTLEHLQLSHDQLLEVKRRMKVEMERGLSKETHASAPVKMLPTYVCATPDGTEKGDFLALDLGGTNFRVLLVRVRNGKWGGVEMHNKIYAIPQEVMHGTGDELFDHIVQCIADFLEYMGMKGVSLPLGFTFSFPCQQNSLDESILLKWTKGFKASGCEGEDVVTLLKEAIHRREEFDLDVVAVVNDTVGTMMTCGFEDPHCEVGLIVGTGSNACYMEEMRNVELVEGEEGRMCVNMEWGAFGDNGCLDDFRTEFDVAVDELSLNPGKQRFEKMISGMYLGEIVRNILIDFTKRGLLFRGRISERLKTRGIFETKFLSQIESDCLALLQVRAILQHLGLESTCDDSIIVKEVCTVVARRAAQLCGAGMAAVVDRIRENRGLDALKVTVGVDGTLYKLHPHFAKVMHETVKDLAPKCDVSFLQSEDGSGKGAALITAVACRIREAGQR
Take B2: the binding entry is listed as “binds” in assay [1] and “no binding” in assay [2].
